The source of these data is patent US7217525.

The chains behind the UniProt entries cited, without tags or fusion partners. Residues count along the entry.
UniProt P19490, residues 19-907: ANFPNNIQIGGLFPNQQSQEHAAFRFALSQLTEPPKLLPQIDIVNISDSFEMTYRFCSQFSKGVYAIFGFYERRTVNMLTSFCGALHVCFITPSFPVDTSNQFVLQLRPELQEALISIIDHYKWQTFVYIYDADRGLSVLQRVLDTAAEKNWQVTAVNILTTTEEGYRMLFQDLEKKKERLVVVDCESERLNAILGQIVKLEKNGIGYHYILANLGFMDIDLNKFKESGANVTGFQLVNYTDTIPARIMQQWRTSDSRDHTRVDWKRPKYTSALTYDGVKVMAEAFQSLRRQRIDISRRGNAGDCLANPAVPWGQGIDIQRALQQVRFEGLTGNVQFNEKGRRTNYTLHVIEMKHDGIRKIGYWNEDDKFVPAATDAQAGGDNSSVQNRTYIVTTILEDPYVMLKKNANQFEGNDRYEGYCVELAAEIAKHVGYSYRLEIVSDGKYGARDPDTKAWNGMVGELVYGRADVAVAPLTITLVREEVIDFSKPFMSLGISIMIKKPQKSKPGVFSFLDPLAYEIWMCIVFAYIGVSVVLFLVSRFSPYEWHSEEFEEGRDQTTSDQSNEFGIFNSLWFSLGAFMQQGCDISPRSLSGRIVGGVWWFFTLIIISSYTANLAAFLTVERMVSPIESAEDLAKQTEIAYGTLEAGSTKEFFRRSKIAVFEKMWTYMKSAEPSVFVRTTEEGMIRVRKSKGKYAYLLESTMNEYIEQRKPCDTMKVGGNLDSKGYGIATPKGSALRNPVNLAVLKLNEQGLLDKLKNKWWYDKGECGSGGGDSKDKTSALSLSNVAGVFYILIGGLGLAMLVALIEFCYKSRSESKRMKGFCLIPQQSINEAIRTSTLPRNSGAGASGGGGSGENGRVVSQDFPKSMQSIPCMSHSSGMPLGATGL

No constants are given. Whether binding was seen depends on the method and setting. Binding seen in cells or lysates may run through a third protein. Some entries that bind do so weakly or less than the wild type.

This assay concerns the target GluR1 (endogenous, rat brain) (rat) (UniProt P19490). Put plainly: co-immunoprecipitation from rat brain.

B1: Narp (endogenous, rat brain and cultured neurons) (ligand)
chain: AGQAQDNPIPGSRFVCTALPPEAARAGCPLPAMPMQGGALSPEEELRAAVLHWRETVVQQKETLGAQREAIRELTSKLARCEGLAGGKARGTGATGKDTMGDLPRDPGHVVEQLSRSLQTLKDRLESLELQLHTNASNAGLPSDFREVLQRRLGELERQLLRKVAELEDEKSLLHNETSAHRQKTENTLNALLQRVTELERGNSAFKSPDAFKVSLPLRTNYLYGKIKKTLPELYAFTICLWLRSSASPGIGTPFSYAVPGQANEIVLIEWGNNPIELLINDKVAQLPLFVSDGKWHHICITWTTRDGMWEAFQDGEKLGTGENLAPWHPIKPGGVLILGQEQDTVGGRFDATQAFVGELSQFNIWDRVLRAQEIINIANCSTNMPGNIIPWVDNNVDVFGGASKWPVETCEERLLDL
modifications: glycosylated
Turning to B1, the binding entry is listed as “binds”.
